No constants are given. Whether binding was seen depends on the method and setting. Some entries that bind do so weakly or less than the wild type.
B1: BCY11648 (peptide)
peptide: ACDADWCDVPSLPCA
modifications: Ci, Cii and Ciii cyclised on the TCAZ scaffold
B2: BCY9717 (peptide)
peptide: CYMEWCDVTDYGC
modifications: N-terminal acetyl (Ac); Ci, Cii and Ciii cyclised on the TATA scaffold

By UniProt entry, the sequences of proteins in these tests, tags left out. Residues count along the entry.
UniProt P16109, residues 42-771: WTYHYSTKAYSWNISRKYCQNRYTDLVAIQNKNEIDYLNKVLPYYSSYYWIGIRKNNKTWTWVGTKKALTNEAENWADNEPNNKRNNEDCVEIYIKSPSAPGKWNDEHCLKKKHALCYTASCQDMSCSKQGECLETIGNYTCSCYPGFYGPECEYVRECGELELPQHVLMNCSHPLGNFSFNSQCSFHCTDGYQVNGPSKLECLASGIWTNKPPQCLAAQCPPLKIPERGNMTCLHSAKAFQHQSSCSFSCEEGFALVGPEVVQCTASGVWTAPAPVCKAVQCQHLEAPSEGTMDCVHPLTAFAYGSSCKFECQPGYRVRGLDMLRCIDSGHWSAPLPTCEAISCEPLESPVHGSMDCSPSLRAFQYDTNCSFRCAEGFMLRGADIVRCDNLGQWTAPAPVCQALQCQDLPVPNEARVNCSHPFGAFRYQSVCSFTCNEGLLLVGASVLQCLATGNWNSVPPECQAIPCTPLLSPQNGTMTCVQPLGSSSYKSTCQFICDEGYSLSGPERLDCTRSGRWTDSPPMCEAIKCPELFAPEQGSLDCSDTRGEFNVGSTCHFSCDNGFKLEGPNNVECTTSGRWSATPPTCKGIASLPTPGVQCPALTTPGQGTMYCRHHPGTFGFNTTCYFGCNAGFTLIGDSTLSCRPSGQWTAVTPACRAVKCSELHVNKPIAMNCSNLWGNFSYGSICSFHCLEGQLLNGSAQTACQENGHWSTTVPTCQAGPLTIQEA

Biological target: Recombinant biotinylated human P-Selectin protein (human) (UniProt P16109)
Assay: SPR (Table 6)

Binder	binding
B1	binds
B2	binds
